Reference: patent US7195900B2, “Cloning and expression of D-amino acid oxidase from arthrobacter protophormiae” (Degussa AG, priority 2002, dated 2007)
The name of at least one read-out is uncertain.

Protein sequences, listed by entry. Tags and fused reporters are not part of them. Lines headed by an entry give the natural chain unless they say otherwise; changes in a name come on top.
UniProt Q7X2D3: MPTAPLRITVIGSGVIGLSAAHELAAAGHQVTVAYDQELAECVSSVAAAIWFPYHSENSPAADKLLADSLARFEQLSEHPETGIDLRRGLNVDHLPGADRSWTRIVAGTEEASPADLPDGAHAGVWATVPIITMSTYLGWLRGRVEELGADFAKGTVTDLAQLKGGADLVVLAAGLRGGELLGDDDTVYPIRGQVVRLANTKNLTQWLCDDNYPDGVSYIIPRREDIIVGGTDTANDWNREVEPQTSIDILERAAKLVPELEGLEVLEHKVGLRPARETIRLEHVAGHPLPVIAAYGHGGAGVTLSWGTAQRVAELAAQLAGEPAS

Target: T1, recombinant D-AAO (Glutamicibacter protophormiae, UniProt Q7X2D3)
T1 construct: The restriction sites NdeI and BamHI were attached to the dao gene by PCR; made in house; host or cells: E. coli BL21(DE3)
Test: Substrate specificity of the recombinant D-AAO (photometric peroxidase/o-dianisidine test)
Format: biochemical, Arthrobacter protophormiae
Details: low solubility: 300 μl supernatant of saturated substrate solution in 1 ml assay volume
Protocol: To isolate D-AAO-forming microorganisms, soil samples were plated out on a nutrient medium in which coryneform bacteria can be concentrated: Na propionate 0.20 g; KNO3 0.01 g; KH2PO4 0.10 g; NaCl 0.25 g; MgSO4.7 H2O 0.10 g; CaCO3 0.02g; trace elements; vitamin solution; cycloheximide 0.05 g; if appropriate, agar 20.00 g; final pH 7.0. Microorganisms which grew on this medium were then transinoculated into a complex medium (DSM 65) with the following composition (per 1l): glucose 4.00 g; yeast extract 4.00 g; malt extract 10.00 g; agar 20 g; final pH 7.2. The strains were then multiplied in liquid medium (DSM 65), harvested by centrifugation, broken down, and the cell-free supernatant was obtained by centrifugation (=crude extract). This crude extract was then employed as an enzyme source for the photometric test for D-AAO activity. The test batch contained: 20 μl amino acid solution (100 mM); 80 μl TEA/o-dianisidine buffer; 10 μl peroxidase soln. (1,000 U/ml); 70 μl H2O; 20 μl crude extract. The measurement was carried out at 436 nm; 1 U corresponds to an amount of enzyme which converts 1 μmol of amino acid or 1 μmol of o-dianisidine per min (extinction coefficient ε for o-dianisidine=8.1 mM^−1 cm^−1).
A partial substrate spectrum was recorded for D-AAO (Table 2).
The stereoselectivity of the D-AAO was tested with the amino acids L-leucine, L-methionine and L-lysine. […]

`NC(CCc1ccccc1)C(=O)O` (racemic) [DL-Homophenylalanine] gave a Relative activity of 31%.

`N[C@H](Cc1ccc(O)cc1)C(=O)O` [D-Tyrosine] was tested, and the Relative activity was 4.7%.
